We go through one substance from patent publication US20060111274A1.

The target of test [1] is T1, V7 (a leukocyte surface protein, transmembrane protein also known as CD101) (UniProt Q93033).
T1 sequence (looked up): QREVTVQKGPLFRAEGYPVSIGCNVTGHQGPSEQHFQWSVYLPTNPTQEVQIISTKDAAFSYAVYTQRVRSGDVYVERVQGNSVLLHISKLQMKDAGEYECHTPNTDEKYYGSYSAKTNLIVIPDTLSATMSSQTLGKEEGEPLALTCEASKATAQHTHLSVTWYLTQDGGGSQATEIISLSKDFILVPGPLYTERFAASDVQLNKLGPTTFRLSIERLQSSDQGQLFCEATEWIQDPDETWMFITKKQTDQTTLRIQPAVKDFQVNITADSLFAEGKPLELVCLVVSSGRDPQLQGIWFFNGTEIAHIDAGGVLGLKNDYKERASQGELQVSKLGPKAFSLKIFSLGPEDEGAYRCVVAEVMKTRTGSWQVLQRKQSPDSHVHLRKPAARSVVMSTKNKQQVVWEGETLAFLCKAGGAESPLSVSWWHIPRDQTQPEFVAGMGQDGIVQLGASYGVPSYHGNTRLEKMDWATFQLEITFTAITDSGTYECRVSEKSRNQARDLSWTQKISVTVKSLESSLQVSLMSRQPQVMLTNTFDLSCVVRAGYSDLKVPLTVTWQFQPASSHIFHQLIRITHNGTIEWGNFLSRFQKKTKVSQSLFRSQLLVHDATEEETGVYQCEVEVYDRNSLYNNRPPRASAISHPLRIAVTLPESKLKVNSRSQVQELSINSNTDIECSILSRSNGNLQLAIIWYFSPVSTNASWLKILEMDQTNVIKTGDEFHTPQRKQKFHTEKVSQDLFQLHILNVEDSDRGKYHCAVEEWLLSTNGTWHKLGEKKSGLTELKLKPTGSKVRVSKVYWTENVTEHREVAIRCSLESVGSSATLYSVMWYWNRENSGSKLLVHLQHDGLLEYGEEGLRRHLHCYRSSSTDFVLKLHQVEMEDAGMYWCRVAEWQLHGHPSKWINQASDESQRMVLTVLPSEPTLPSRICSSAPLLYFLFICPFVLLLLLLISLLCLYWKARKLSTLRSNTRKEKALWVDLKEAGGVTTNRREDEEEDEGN
Kind of test: co-immunoprecipitation from T cell lysate with anti-V7 murine antibody and goat anti-mouse IgG.

In test [2] the target is T1, V7 (a leukocyte surface protein, transmembrane protein also known as CD101). Briefly: co-immunoprecipitation from T cell lysate with anti-V7 murine monoclonal antibody and goat anti-mouse IgG.

These are yes or no findings as the source states them, for the method shown. Binding seen in cells or lysates may run through a third protein. Some results given as binding are weak or reduced against the parent protein; the word gives no strength.

Consider “RAF-1 kinase (from UniProt P04049 1-648) (enzyme)”, for which the binding entry in test [1] and in test [2] was “binds” each time.
